Results deposited as PubChem BioAssay AID1259254 (NCATS, 2017).
Shown is a random part of about 59,000 reagents. About 1,550 of them (2.6%) count as active. 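G2 share is only a proxy for re-replication; each gene was hit by three separate siRNAs, and active genes were retested.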 Raw values vary from plate to plate and are shown uncorrected. The numbers tell different reagents against one gene apart. No sequences are given here. Not stated in the record: the amount of reagent.

Screen: 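Finding genes that stop cells copying their DNA twice in one cycle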 (primary screen)
Cell system: human HCT116 colorectal cancer cells
Reagent: single siRNA against human genes
Duration: 3 days
Measurement: 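Imaged Hoechst DNA stain sorts each cell into a cycle phase by DNA amount; per plate, G2 fraction set to 0% for non-targeting and 100% for GMNN siRNA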
Direction: G2 robust z-score and G2 cells, % of GMNN control: higher = more G2 cells, more excess DNA replication; raw share of cells in G2: higher = larger share of cells with G2 DNA content
Hit rule: 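An siRNA counts as active if its G2 robust z-score lies at least 5 MADs above the screen median; here such calls match roughly 38% of GMNN control or more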

| gene | reagent | G2 robust z-score | G2 cells, % of GMNN control | raw share of cells in G2 (%) | Call |
| --- | --- | --- | --- | --- | --- |
| CUTA (cutA divalent cation tolerance homolog) | 1 | 1.53 | 13.7 | 8.52 | inactive |
| CUTA (cutA divalent cation tolerance homolog) | 2 | 0.481 | 6.35 | 6.94 | inactive |
| CUTA (cutA divalent cation tolerance homolog) | 3 | -0.833 | -2.89 | 2.24 | inactive |
| TBC1D27P (TBC1 domain family member 27, pseudogene) | 1 | -0.978 | -3.92 | 2.52 | inactive |
| TBC1D27P (TBC1 domain family member 27, pseudogene) | 2 | 0.879 | 9.15 | 6.06 | inactive |
| TBC1D27P (TBC1 domain family member 27, pseudogene) | 3 | -0.157 | 1.86 | 2.36 | inactive |
| TRIB2 (tribbles pseudokinase 2) | 1 | -0.294 | 0.896 | 5.87 | inactive |
| TRIB2 (tribbles pseudokinase 2) | 2 | -0.781 | -2.53 | 4.27 | inactive |
| TRIB2 (tribbles pseudokinase 2) | 3 | 2.43 | 20.1 | 10.1 | inactive |
| TRIM51 (tripartite motif-containing 51) | 1 | 0.326 | 5.26 | 6.1 | inactive |
| TRIM51 (tripartite motif-containing 51) | 2 | -1.34 | -6.48 | 2.39 | inactive |
| TRIM51 (tripartite motif-containing 51) | 3 | 0.69 | 7.83 | 8.69 | inactive |
| ILDR2 (immunoglobulin like domain containing receptor 2) | 1 | 1.38 | 12.7 | 8.11 | inactive |
| ILDR2 (immunoglobulin like domain containing receptor 2) | 2 | -0.378 | 0.305 | 3.54 | inactive |
| ILDR2 (immunoglobulin like domain containing receptor 2) | 3 | 0.299 | 5.07 | 6.81 | inactive |
| YARS1 (tyrosyl-tRNA synthetase 1) | 1 | 5.81 | 43.8 | 24.4 | active |
| YARS1 (tyrosyl-tRNA synthetase 1) | 2 | 4.15 | 32.2 | 16.2 | inactive |
| YARS1 (tyrosyl-tRNA synthetase 1) | 3 | -0.208 | 1.51 | 5.79 | inactive |
| LIAT1 (ligand of ATE1) | 1 | -0.318 | 0.727 | 4.08 | inactive |
| LIAT1 (ligand of ATE1) | 2 | -0.169 | 1.78 | 4.22 | inactive |
| LIAT1 (ligand of ATE1) | 3 | -0.0838 | 2.38 | 5.78 | inactive |
| TLR1 (toll like receptor 1) | 1 | -0.384 | 0.269 | 4.48 | inactive |
| TLR1 (toll like receptor 1) | 2 | -0.182 | 1.69 | 5.9 | inactive |
| TLR1 (toll like receptor 1) | 3 | 0.374 | 5.6 | 6.67 | inactive |
| ERP44 (endoplasmic reticulum protein 44) | 1 | 1.02 | 10.2 | 7.35 | inactive |
| ERP44 (endoplasmic reticulum protein 44) | 2 | -0.589 | -1.18 | 3.76 | inactive |
| ERP44 (endoplasmic reticulum protein 44) | 3 | -0.82 | -2.8 | 5.24 | inactive |
| OR2A2 (olfactory receptor family 2 subfamily A member 2) | 1 | 0.322 | 5.23 | 5.64 | inactive |
| OR2A2 (olfactory receptor family 2 subfamily A member 2) | 2 | 0.749 | 8.24 | 6.54 | inactive |
| OR2A2 (olfactory receptor family 2 subfamily A member 2) | 3 | 0.362 | 5.51 | 4.99 | inactive |

Copied from the listing (2 entries):
| gene | reagent | G2 robust z-score | G2 cells, % of GMNN control | raw share of cells in G2 (%) | Call |
| --- | --- | --- | --- | --- | --- |
| LIAT1 (ligand of ATE1) | 1 | -0.318 | 0.727 | 4.08 | inactive |
| LIAT1 (ligand of ATE1) | 2 | -0.169 | 1.78 | 4.22 | inactive |

The list goes on.
| gene | reagent | G2 robust z-score | G2 cells, % of GMNN control | raw share of cells in G2 (%) | Call |
| --- | --- | --- | --- | --- | --- |
| HS3ST1 (heparan sulfate-glucosamine 3-sulfotransferase 1) | 1 | -0.483 | -0.432 | 4.58 | inactive |
| HS3ST1 (heparan sulfate-glucosamine 3-sulfotransferase 1) | 2 | 4.89 | 37.4 | 19.3 | inactive |
| HS3ST1 (heparan sulfate-glucosamine 3-sulfotransferase 1) | 3 | 0.373 | 5.59 | 5.11 | inactive |
| TBC1D31 (TBC1 domain family member 31) | 1 | -0.285 | 0.959 | 2.1 | inactive |
| TBC1D31 (TBC1 domain family member 31) | 2 | 0.086 | 3.57 | 5.52 | inactive |
| TBC1D31 (TBC1 domain family member 31) | 3 | 0.13 | 3.88 | 4.49 | inactive |
| GIPC3 (GIPC PDZ domain containing family member 3) | 1 | -0.132 | 2.04 | 6.62 | inactive |
| GIPC3 (GIPC PDZ domain containing family member 3) | 2 | 2.07 | 17.6 | 12.5 | inactive |
| GIPC3 (GIPC PDZ domain containing family member 3) | 3 | -0.991 | -4.01 | 2.97 | inactive |
| IL38 (interleukin 38) | 1 | -0.678 | -1.8 | 3.51 | inactive |
| IL38 (interleukin 38) | 2 | 2.68 | 21.8 | 9.94 | inactive |
| IL38 (interleukin 38) | 3 | -0.783 | -2.54 | 1.64 | inactive |
| RXRB (retinoid X receptor beta) | 1 | 0.0672 | 3.44 | 6.84 | inactive |
| RXRB (retinoid X receptor beta) | 2 | -0.618 | -1.38 | 4.07 | inactive |
| RXRB (retinoid X receptor beta) | 3 | 0.341 | 5.37 | 5.73 | inactive |
| TXNDC15 (thioredoxin domain containing 15) | 1 | 0.801 | 8.6 | 8.01 | inactive |
| TXNDC15 (thioredoxin domain containing 15) | 2 | 2.33 | 19.4 | 12.8 | inactive |
| TXNDC15 (thioredoxin domain containing 15) | 3 | -0.687 | -1.87 | 1.87 | inactive |
